EP2873675A1, “Peptide-based peroxidase inhibitors and methods of using same” (The Medical College of Wisconsin, Inc., priority 2013, dated 2015)
Residues, ends and D or L forms follow the SMILES beside them.

tested on: MPO; experiment: HPLC analysis of MPO-mediated oxidation products; type: biochemical; settings: MPO/H2O2, also with NO2- or Cl-; HPLC 280 nm and fluorescence

Compound | major product of MPO/H2O2-mediated oxidation
CC(=O)N[C@@H](CCCCN)C(=O)N[C@@H](Cc1ccc(O)cc1)C(=O)N[C@@H](CS)C(N)=O [KYC, N-acetyl Lysyltyrosylcysteine amide] (Ac-Lys-Tyr-Cys-NH2) | KYC disulfide
N-acetyl Lysylphenylalanylcysteine amid [KFC] | did not yield MPO-dependent oxidation products
N-acetyl Lysyltyrosylcyeteine amide [KYS] | DiTyr
